Test results reported in paper PMC12059206.

The chains behind the UniProt entries cited, without tags or fusion partners.
UniProt Q06413: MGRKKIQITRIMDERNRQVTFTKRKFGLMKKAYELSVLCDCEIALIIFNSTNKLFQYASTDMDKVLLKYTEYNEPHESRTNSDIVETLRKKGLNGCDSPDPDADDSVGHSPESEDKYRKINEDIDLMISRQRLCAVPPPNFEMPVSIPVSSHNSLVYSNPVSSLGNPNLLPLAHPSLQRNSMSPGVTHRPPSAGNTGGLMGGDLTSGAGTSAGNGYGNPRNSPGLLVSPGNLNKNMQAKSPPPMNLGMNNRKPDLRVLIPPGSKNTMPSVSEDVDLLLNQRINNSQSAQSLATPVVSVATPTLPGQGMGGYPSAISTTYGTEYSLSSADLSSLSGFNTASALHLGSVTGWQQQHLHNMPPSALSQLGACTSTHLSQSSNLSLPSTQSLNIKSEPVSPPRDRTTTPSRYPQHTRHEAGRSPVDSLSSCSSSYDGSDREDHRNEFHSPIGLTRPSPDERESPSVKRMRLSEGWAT

Biological target: T1, FLAG-tagged SENP1 (UniProt Q9P0U3)
T1 sequence: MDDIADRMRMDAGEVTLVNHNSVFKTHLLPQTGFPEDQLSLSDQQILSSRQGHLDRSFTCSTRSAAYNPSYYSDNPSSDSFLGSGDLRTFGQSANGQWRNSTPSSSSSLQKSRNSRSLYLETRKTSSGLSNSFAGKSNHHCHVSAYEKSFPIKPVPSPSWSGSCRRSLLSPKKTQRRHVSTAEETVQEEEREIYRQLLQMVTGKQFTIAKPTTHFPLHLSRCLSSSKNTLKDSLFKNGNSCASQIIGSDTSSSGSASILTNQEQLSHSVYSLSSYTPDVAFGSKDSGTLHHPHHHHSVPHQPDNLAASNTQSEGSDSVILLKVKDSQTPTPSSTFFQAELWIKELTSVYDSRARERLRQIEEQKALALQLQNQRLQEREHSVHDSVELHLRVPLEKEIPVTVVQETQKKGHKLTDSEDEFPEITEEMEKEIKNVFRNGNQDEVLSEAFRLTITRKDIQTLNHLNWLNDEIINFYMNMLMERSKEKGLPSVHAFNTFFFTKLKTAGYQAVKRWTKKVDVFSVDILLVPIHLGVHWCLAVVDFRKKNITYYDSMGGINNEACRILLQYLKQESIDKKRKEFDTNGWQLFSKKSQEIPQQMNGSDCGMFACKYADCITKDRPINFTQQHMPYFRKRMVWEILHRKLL
Test: affinity purification with mass spectrometry; FLAG-tagged SENP1 overexpressed in HEK293T cells; SENP1 complex immunoprecipitated by FLAG, silver staining, mass spectrometry

- binding: binds
Substance: MEF2C (from UniProt Q06413 1-473)

These are yes or no findings as the source states them, for the method shown. In cells and extracts the contact can be indirect. A yes stands for co-enrichment or nearness to the bait. Other partners may have been found. Tags and fused reporters may be left off the sequences shown.
